Laboratory results published in publication PMC2883962.
No constants are given. Whether binding was seen depends on the method and setting. In cells and extracts the contact can be indirect. Some entries that bind do so weakly or less than the wild type.

Sequences of proteins named here, by UniProt entry; tags and fusion partners are left off. A change or cut given only in a name is not applied to a line headed by its entry.
UniProt Q04206: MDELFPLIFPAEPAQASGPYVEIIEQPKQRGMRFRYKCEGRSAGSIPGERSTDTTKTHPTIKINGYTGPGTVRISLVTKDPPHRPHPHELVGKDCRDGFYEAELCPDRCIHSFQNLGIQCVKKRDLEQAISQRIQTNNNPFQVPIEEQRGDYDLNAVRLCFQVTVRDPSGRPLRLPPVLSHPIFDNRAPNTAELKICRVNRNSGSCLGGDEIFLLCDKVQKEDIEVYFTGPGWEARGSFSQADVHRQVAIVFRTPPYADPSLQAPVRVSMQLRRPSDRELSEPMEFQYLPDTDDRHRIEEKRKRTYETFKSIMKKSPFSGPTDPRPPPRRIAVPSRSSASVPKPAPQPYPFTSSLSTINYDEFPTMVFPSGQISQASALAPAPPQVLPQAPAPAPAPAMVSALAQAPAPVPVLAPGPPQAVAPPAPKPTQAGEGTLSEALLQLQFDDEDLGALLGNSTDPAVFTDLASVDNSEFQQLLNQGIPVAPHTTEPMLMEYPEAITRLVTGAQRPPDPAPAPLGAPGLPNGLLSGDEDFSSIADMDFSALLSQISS

Molecular target: T1, Par-4 overexpressed in HT29 cells from rat par-4 cDNA in pCB6+ (rat) (UniProt Q62627)
T1 sequence: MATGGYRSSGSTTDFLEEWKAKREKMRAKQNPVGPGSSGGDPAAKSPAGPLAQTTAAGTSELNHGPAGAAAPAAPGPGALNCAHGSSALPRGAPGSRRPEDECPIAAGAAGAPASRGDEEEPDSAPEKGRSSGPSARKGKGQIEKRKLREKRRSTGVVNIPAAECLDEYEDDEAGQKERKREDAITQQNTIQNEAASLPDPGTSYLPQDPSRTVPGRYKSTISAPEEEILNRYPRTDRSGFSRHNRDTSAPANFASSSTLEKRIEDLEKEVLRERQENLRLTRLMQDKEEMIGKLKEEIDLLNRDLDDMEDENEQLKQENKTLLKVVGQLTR
Assay: co-IP; Par-4 antibody immunoprecipitation from nuclear and cytoplasmic fractions (NE-PER kit) of empty vector- and Par-4-transfected HT29 cells; immunoblot with p65 and IκB antibodies

binding: binds
Substance: NFκB (subunits p65 and p50) (from UniProt Q04206 1-551; P19838 1-433) (complex)
